# Source: the supplement of paper PMC10849652
# By UniProt entry, the sequences of proteins in these tests, tags left out. Where a name states a change or a piece, a line headed by the entry shows the natural chain unless it says otherwise.
# UniProt Q99766: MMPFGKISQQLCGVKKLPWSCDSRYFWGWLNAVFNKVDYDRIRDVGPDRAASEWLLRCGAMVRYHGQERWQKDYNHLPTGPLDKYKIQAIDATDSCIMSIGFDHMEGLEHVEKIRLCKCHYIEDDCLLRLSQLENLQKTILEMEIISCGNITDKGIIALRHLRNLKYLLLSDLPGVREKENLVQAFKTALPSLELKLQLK
# UniProt Q9NR28: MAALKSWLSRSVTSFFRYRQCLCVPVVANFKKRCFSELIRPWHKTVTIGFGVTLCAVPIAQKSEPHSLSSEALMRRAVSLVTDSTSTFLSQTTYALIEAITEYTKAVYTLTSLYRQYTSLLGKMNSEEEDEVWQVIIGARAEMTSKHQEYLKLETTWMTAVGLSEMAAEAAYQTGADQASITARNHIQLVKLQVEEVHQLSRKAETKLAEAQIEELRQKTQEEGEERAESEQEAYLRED
# UniProt Q86SQ9: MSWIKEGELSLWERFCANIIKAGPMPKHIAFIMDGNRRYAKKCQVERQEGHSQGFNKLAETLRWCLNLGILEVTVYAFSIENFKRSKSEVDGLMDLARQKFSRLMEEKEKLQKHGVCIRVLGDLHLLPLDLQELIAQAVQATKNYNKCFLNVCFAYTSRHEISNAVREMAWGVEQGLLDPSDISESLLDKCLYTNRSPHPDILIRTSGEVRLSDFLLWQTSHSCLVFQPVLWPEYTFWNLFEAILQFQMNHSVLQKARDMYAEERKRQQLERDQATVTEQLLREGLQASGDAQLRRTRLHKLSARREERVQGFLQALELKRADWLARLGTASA
# UniProt Q6P158: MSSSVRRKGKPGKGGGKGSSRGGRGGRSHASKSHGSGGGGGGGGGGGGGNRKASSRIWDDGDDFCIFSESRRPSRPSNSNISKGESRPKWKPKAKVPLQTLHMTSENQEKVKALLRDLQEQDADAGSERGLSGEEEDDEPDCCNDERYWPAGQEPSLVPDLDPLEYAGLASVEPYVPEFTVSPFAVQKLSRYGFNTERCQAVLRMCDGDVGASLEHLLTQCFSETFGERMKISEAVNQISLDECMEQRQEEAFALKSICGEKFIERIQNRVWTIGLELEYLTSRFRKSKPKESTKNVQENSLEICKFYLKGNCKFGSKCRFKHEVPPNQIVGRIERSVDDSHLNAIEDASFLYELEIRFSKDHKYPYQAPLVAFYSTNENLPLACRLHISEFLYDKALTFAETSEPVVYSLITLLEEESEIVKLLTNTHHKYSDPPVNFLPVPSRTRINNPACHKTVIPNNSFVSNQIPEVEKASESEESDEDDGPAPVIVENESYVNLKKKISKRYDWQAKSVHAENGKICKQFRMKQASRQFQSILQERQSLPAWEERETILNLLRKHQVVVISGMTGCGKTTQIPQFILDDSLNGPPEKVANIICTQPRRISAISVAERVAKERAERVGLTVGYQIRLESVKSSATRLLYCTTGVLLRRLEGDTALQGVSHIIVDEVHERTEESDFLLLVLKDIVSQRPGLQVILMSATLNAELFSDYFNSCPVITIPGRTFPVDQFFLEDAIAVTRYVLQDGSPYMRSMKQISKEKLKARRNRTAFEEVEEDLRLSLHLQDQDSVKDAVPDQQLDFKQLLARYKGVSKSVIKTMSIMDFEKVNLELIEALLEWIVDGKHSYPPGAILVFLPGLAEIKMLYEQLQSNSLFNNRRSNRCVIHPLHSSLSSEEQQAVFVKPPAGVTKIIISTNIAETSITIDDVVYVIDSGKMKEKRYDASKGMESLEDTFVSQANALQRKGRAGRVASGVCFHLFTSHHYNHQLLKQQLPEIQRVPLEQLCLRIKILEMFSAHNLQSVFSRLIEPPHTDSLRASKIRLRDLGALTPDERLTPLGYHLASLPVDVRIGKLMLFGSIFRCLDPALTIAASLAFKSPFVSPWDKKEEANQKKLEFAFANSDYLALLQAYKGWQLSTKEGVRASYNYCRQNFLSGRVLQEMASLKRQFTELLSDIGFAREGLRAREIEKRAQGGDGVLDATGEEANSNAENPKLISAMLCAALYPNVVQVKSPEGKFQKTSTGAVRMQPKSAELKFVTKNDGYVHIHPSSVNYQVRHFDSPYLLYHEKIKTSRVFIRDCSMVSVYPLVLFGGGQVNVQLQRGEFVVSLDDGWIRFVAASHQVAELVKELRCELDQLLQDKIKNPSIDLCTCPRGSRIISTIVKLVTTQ
# UniProt Q9P265: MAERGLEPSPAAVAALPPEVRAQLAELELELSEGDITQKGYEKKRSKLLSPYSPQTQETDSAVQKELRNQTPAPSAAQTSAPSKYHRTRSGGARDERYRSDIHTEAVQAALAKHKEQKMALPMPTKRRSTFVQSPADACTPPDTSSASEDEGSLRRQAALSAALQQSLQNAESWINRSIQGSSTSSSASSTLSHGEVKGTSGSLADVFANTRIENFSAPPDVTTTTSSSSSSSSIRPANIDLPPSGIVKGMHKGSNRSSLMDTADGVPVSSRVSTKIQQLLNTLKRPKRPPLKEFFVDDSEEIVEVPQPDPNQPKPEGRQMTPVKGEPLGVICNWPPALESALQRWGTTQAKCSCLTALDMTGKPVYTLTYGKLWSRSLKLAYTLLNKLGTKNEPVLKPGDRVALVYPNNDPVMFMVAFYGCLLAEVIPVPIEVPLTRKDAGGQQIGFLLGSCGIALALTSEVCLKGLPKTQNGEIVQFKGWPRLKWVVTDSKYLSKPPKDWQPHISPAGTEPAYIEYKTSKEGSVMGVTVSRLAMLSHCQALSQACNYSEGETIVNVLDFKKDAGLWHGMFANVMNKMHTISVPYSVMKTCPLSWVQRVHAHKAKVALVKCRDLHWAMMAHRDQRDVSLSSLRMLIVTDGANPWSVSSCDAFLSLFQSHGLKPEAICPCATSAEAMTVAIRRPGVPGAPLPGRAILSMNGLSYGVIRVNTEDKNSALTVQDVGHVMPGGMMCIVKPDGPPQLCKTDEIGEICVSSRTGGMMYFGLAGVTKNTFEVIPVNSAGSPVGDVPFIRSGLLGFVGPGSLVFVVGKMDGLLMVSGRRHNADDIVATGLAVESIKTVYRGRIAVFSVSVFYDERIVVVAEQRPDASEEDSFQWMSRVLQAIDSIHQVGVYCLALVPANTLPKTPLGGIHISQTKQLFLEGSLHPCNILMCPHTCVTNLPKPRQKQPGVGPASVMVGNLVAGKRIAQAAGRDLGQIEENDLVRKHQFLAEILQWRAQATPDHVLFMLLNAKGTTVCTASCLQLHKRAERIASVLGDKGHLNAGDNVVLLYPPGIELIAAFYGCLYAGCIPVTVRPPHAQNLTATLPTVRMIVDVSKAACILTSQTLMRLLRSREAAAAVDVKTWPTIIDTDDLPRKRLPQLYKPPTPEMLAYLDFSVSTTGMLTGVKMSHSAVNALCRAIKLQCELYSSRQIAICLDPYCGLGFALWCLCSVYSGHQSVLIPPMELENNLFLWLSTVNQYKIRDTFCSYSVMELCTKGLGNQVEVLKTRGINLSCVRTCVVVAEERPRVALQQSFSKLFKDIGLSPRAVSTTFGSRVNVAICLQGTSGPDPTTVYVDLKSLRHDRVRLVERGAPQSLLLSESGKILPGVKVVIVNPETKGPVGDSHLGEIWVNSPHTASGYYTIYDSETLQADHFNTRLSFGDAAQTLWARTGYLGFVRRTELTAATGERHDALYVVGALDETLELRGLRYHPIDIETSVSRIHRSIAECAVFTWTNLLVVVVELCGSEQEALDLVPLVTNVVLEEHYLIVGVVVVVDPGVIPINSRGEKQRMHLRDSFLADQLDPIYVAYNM
# UniProt Q7L591: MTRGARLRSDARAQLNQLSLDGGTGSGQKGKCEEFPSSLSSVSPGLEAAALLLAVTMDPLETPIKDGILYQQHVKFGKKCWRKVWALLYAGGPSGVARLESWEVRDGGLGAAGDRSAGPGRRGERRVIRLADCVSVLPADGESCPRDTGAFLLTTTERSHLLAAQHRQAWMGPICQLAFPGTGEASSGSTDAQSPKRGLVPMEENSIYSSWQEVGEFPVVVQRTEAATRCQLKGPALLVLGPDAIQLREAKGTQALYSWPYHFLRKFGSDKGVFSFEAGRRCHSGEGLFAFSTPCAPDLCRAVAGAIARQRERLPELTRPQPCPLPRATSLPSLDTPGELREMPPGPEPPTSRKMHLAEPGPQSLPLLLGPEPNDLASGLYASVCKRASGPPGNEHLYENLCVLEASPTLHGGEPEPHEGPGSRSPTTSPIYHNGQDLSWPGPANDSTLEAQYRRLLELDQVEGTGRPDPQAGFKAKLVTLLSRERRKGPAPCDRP
# UniProt O43143: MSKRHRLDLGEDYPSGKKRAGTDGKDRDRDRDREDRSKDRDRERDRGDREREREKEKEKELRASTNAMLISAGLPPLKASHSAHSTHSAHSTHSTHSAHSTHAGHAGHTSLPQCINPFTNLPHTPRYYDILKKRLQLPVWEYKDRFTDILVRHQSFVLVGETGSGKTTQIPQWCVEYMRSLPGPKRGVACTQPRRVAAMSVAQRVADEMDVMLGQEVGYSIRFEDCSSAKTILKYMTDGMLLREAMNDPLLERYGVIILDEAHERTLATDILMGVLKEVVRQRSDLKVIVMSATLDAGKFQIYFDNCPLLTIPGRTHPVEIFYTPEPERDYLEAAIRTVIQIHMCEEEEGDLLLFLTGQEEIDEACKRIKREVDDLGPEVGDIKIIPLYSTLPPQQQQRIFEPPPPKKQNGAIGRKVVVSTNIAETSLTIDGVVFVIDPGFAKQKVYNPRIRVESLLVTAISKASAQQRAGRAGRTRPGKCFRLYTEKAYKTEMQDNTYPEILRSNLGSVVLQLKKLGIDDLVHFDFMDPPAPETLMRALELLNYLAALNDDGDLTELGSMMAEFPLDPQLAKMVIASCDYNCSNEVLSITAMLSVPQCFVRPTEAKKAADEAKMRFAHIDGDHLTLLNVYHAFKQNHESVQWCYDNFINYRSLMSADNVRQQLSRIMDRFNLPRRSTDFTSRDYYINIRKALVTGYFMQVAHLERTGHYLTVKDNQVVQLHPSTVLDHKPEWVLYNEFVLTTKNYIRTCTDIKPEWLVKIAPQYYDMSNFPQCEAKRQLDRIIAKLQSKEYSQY
# UniProt O60832: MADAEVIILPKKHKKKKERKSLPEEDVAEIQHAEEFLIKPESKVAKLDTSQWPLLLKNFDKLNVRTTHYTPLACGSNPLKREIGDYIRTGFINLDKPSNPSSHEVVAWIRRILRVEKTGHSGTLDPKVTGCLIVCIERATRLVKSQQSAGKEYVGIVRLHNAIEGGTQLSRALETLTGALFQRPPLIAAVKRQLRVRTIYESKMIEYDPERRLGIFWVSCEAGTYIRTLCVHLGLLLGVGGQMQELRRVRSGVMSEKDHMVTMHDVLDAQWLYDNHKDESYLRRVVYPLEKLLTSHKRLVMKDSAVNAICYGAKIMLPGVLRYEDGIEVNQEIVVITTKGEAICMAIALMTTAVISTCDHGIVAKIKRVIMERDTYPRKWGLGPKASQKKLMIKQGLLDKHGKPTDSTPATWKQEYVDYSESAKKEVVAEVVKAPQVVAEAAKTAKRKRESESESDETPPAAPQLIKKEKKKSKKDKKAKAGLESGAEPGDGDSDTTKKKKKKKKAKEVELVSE
# UniProt Q8IX18: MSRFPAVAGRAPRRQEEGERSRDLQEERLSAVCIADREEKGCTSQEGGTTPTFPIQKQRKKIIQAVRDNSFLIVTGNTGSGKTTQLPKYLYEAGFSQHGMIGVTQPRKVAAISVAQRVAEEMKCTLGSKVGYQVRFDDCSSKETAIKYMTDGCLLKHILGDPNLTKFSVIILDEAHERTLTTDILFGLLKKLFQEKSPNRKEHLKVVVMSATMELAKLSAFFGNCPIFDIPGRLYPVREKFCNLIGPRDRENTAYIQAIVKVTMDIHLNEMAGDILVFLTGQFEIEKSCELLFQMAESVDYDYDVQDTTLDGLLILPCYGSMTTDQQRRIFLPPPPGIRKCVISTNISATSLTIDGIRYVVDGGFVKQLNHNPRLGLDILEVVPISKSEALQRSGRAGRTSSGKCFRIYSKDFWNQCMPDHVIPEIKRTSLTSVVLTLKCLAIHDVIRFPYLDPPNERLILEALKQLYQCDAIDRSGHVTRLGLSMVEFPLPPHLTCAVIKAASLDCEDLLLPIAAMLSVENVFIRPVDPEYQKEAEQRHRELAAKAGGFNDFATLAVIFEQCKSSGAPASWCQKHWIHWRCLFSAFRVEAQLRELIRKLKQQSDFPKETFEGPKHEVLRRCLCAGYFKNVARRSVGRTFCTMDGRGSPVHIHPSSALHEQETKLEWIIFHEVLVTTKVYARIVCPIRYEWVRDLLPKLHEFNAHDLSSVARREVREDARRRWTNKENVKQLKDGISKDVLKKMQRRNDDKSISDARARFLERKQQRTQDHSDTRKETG
# This is one part of the list.
# Experiments:
# Assay in all cases: log2 fold change, soluble protein after heating vs DMSO (PISA); higher = thermal stabilisation; K562 lysate, 10 uM; active = over 0.2 and 3.5 SD of the protein, either way, in both replicates (recomputed)
# [1] = compound: C#Cc1cccc(Nc2ncnc3cc(OCCOC)c(OCCOC)cc23)c1 [erlotinib]
# Summary of the method: (§1)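 Dounce homogenisation of K562 pellets in PBS pH 7.4 with 1 mM MgCl2 produced a crude extract, used at 1 mg/mL protein. Exposure to 10 μM compound lasted 30 min, and aliquots were then heated for 3 min across 48°C-58°C, pooled and brought to 0.5% NP-40 at 4°C. The supernatant after 21,000xg for 90 min was quantified by TMTpro 16plex LC-MS/MS with channel sums equalised. Duplicate values are given as log-two fold change in thermal stability relative to solvent controls.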
# [2] = compound: C/C(=N\NC(=O)C1=CC(=CC=C1)S(=O)(=O)N2CCOCC2)/C3=C(C=CC(=C3)Cl)O
# Summary of the method: as §1
# [3] = compound: C1=CC(=CC=C1C2=NC3=C(N2)C=C(C=C3)C(=O)N)OC4=CC=C(C=C4)Cl
# Summary of the method: as §1
# [4] = compound: C1=CC2=C(C=CC(=C2)/C=C\3/C(=O)NC(=NCC4=CC=CS4)S3)N=C1
# Summary of the method: as §1
# [5] = compound: C1=CC2=NC=CN=C2C=C1/C=C/3\C(=O)NC(=O)S3
# Summary of the method: as §1
# [6] = compound: C1=CC=C(C=C1)C2=NC(=C(N2)C3=CC=NC=C3)C4=CC(=C(C=C4)Cl)O
# Summary of the method: as §1
# [7] = compound: C1=CC=C2C(=C1)C3=NNC4=CC=CC(=C43)C2=O
# Summary of the method: as §1
# [8] = compound: C1CCN(C1)C(=O)NC2=CC=CC(=C2)NC3=NC=C(C(=N3)NCCC4=CN=CN4)Br
# Summary of the method: as §1
# [9] = compound: C1CN(CCC1(CC2=CC=C(C=C2)Cl)N)C3=NC=NC4=C3C=CN4
# Summary of the method: as §1
# [10] = compound: C1COCCN1CCN2C3=CC=CC=C3N=C2NC(=O)C4=CC(=CC=C4)[N+](=O)[O-] [IRAK-1-4 Inhibitor I]
# Summary of the method: as §1
# [11] = compound: C=CC(=O)N1CCC[C@@H](n2nc(-c3ccc(Oc4ccccc4)cc3)c3c(N)ncnc32)C1 [ibrutinib]
# Summary of the method: as §1
# [12] = compound: CC(=O)c1cnc2ccc(-c3cc(Cl)c(O)c(Cl)c3)nc2c1N[C@H]1CC[C@H](CN(C)C)CC1
# Summary of the method: as §1
# [13] = compound: CC(C)(C)Cn1c(N)nc2ccc(-c3[nH]c(C(C)(C)C)nc3-c3ccc(F)cc3)nc21 [ralimetinib]
# Summary of the method: as §1
# [14] = compound: CC(C)(O)CC(=O)NCCn1ccc2ncnc(Nc3ccc(Oc4cccc(C(F)(F)F)c4)c(Cl)c3)c21
# Summary of the method: as §1
# [15] = compound: CC(C)C1=C2N=C(C=C(N2N=C1)NCC3=CC=CC=C3)NCCCCCCN
# Summary of the method: as §1
# [16] = compound: CC1=C(C(CC(=O)N1)C2=CC=C(C=C2)C(F)(F)F)C(=O)NC3=C(C=C4C(=C3)C=NN4)F
# Summary of the method: as §1
# [17] = compound: CC1=C(C2=C(C=C1)C(=O)C3=CC=CC=C3N2CCCN)C
# Summary of the method: as §1
# [18] = compound: CC1=C(C=C(C=C1)NC(=O)C2=CC(=CC=C2)C(C)(C)C#N)NC3=CC4=C(C=C3)N=CN(C4=O)C
# Summary of the method: as §1
# [19] = compound: CC1=C(C=C(C=C1)NC(=O)C2=CC(=CC=C2)N(C)C)NC(=O)C3=CC=C(C=C3)O
# Summary of the method: as §1
# [20] = compound: CC1=CC=C(C=C1)SC2=C3C=C(SC3=CN=C2)C(=O)N
# Summary of the method: as §1
Target,log2 fold change [1],log2 fold change [2],log2 fold change [3],log2 fold change [4],log2 fold change [5],log2 fold change [6],log2 fold change [7],log2 fold change [8],log2 fold change [9],log2 fold change [10],log2 fold change [11],log2 fold change [12],log2 fold change [13],log2 fold change [14],log2 fold change [15],log2 fold change [16],log2 fold change [17],log2 fold change [18],log2 fold change [19],log2 fold change [20]
DHRS1 (UniProt Q96LJ7),inactive: 0.024,active: 0.898,inactive: -0.017,inactive: -0.008,inactive: -0.036,active: 0.654,inactive: 0.05,inactive: -0.052,inactive: 0.105,inactive: -0.051,inactive: -0.057,inactive: -0.037,inactive: 0.01,inactive: 0.089,inactive: 0.058,inactive: 0.024,inactive: -0.104,inactive: 0.001,inactive: -0.035,inactive: -0.001
DMAC2L (UniProt Q99766),inactive: -0.057,inactive: 0.033,inactive: -0.017,inactive: 0.008,inactive: -0.074,inactive: 0.015,inactive: -0.066,inactive: -0.068,inactive: 0.027,inactive: -0.005,inactive: 0.046,inactive: -0.046,inactive: 0.037,inactive: -0.017,inactive: 0.017,inactive: 0.005,inactive: -0.018,inactive: 0.008,inactive: -0.043,inactive: -0.019
DIABLO (UniProt Q9NR28),inactive: 0.005,inactive: -0.023,inactive: 0.005,inactive: 0.016,inactive: 0.008,inactive: -0.007,inactive: 0.02,inactive: 0.004,inactive: 0.022,inactive: 0.004,inactive: 0.088,inactive: -0.036,inactive: -0.001,inactive: -0.05,inactive: -0.029,inactive: -0.042,inactive: 0,inactive: 0.003,inactive: -0.011,inactive: 0.004
DHDDS isoform 2 (UniProt Q86SQ9),inactive: -0.038,inactive: -0.045,inactive: 0.033,inactive: -0.01,inactive: 0.024,inactive: 0.011,inactive: -0.094,inactive: 0.053,inactive: -0.051,inactive: 0.014,inactive: 0.059,inactive: 0.029,inactive: -0.052,inactive: 0.046,inactive: -0.068,inactive: -0.082,inactive: -0.066,inactive: -0.036,inactive: 0.026,inactive: -0.035
DHX57 (UniProt Q6P158),inactive: -0.011,inactive: 0.033,inactive: -0.021,inactive: 0.028,inactive: -0.016,inactive: 0.094,inactive: -0.011,inactive: 0.014,inactive: 0.04,inactive: 0.01,inactive: 0.025,inactive: -0.014,inactive: 0.027,inactive: -0.072,inactive: 0.061,inactive: 0.026,inactive: -0.011,inactive: 0.017,inactive: -0.04,inactive: 0.036
DIP2B (UniProt Q9P265),inactive: -0.011,inactive: -0.006,inactive: 0.017,inactive: -0.013,inactive: 0.001,inactive: -0.008,inactive: 0.023,inactive: 0.001,inactive: -0.012,inactive: 0.005,inactive: 0.017,inactive: -0.002,inactive: -0.003,inactive: -0.052,inactive: 0.001,inactive: 0.02,inactive: -0.012,inactive: 0.014,inactive: -0.01,inactive: 0.015
DOK3 (UniProt Q7L591),inactive: 0.036,inactive: -0.022,inactive: 0.111,inactive: -0.033,inactive: -0.022,inactive: 0.033,inactive: 0.273,inactive: 0.02,inactive: 0.168,inactive: 0.052,inactive: 0.071,inactive: -0.023,inactive: 0.024,inactive: -0.079,inactive: 0.049,inactive: 0.042,inactive: 0.043,inactive: -0.015,inactive: -0.071,inactive: 0.013
DHX15 (UniProt O43143),inactive: -0.025,inactive: 0.04,inactive: 0,inactive: -0.038,inactive: -0.002,inactive: -0.006,inactive: -0.007,inactive: -0.003,inactive: -0.007,inactive: 0.011,inactive: 0.003,inactive: -0.011,inactive: 0.025,inactive: -0.027,inactive: -0.016,inactive: 0.001,inactive: -0.005,inactive: -0.014,inactive: -0.007,inactive: 0.014
DNAJC21 isoform 3 (UniProt Q5F1R6),inactive: 0.017,inactive: -0.01,inactive: 0.031,inactive: 0.046,inactive: -0.008,inactive: 0.032,inactive: -0.008,inactive: 0.023,inactive: 0.026,inactive: -0.021,inactive: 0.044,inactive: 0.003,inactive: -0.009,inactive: -0.016,inactive: 0.017,inactive: 0.051,inactive: -0.016,inactive: -0.047,inactive: -0.021,inactive: 0.009
DHX30 isoform 2 (UniProt Q7L2E3),inactive: 0.013,inactive: 0.006,inactive: 0,inactive: 0.019,inactive: 0.011,inactive: 0,inactive: 0,inactive: 0.003,inactive: 0.045,inactive: 0.005,inactive: -0.008,inactive: -0.033,inactive: 0.004,inactive: -0.02,inactive: -0.002,inactive: 0,inactive: -0.02,inactive: 0.012,inactive: 0.034,inactive: -0.008
DNAJA1 (UniProt P31689),inactive: -0.031,inactive: 0.01,inactive: -0.012,inactive: -0.001,inactive: -0.022,inactive: 0.005,inactive: 0.011,inactive: -0.019,inactive: -0.005,inactive: 0.006,inactive: -0.01,inactive: 0.017,inactive: 0.005,inactive: -0.039,inactive: 0.006,inactive: -0.021,inactive: 0.015,inactive: 0.023,inactive: 0.019,inactive: 0.008
DKC1 (UniProt O60832),inactive: -0.015,inactive: 0.013,inactive: 0.019,inactive: -0.006,inactive: -0.014,inactive: -0.014,inactive: 0.017,inactive: -0.001,inactive: 0.003,inactive: 0.028,inactive: 0.033,inactive: -0.018,inactive: -0.013,inactive: -0.04,inactive: 0.015,inactive: -0.014,inactive: 0.005,inactive: -0.035,inactive: 0,inactive: 0.007
DNAH10 (UniProt Q8IVF4),inactive: 0.003,inactive: 0.047,inactive: -0.059,inactive: -0.053,inactive: -0.026,inactive: 0.026,inactive: -0.043,inactive: 0.012,inactive: 0.036,inactive: 0.054,inactive: 0.038,inactive: -0.017,inactive: -0.123,inactive: -0.112,inactive: -0.015,inactive: -0.04,inactive: -0.069,inactive: 0.137,inactive: -0.014,inactive: -0.051
DHX40 (UniProt Q8IX18),inactive: -0.073,inactive: -0.03,inactive: -0.038,inactive: 0.047,inactive: 0.02,inactive: -0.001,inactive: 0.008,inactive: -0.028,inactive: 0.024,inactive: -0.069,inactive: -0.011,inactive: -0.032,inactive: 0.035,inactive: 0.03,inactive: 0,inactive: -0.091,inactive: -0.027,inactive: -0.019,inactive: 0.016,inactive: -0.008
DOCK10 (UniProt Q96BY6),inactive: -0.23,inactive: -0.191,inactive: -0.03,inactive: 0.007,inactive: -0.094,inactive: -0.048,inactive: -0.034,inactive: -0.064,inactive: -0.028,inactive: -0.017,inactive: -0.151,inactive: 0.02,inactive: -0.001,inactive: -0.008,inactive: -0.084,inactive: -0.161,inactive: 0.008,inactive: 0.246,inactive: -0.045,inactive: 0.022

# Some of the entries so far, with bars between the fields:
Target | log2 fold change [1] | log2 fold change [2] | log2 fold change [3] | log2 fold change [4] | log2 fold change [5] | log2 fold change [6] | log2 fold change [7] | log2 fold change [8] | log2 fold change [9] | log2 fold change [10] | log2 fold change [11] | log2 fold change [12] | log2 fold change [13] | log2 fold change [14] | log2 fold change [15] | log2 fold change [16] | log2 fold change [17] | log2 fold change [18] | log2 fold change [19] | log2 fold change [20]
DIP2B (UniProt Q9P265) | inactive: -0.011 | inactive: -0.006 | inactive: 0.017 | inactive: -0.013 | inactive: 0.001 | inactive: -0.008 | inactive: 0.023 | inactive: 0.001 | inactive: -0.012 | inactive: 0.005 | inactive: 0.017 | inactive: -0.002 | inactive: -0.003 | inactive: -0.052 | inactive: 0.001 | inactive: 0.02 | inactive: -0.012 | inactive: 0.014 | inactive: -0.01 | inactive: 0.015
DOK3 (UniProt Q7L591) | inactive: 0.036 | inactive: -0.022 | inactive: 0.111 | inactive: -0.033 | inactive: -0.022 | inactive: 0.033 | inactive: 0.273 | inactive: 0.02 | inactive: 0.168 | inactive: 0.052 | inactive: 0.071 | inactive: -0.023 | inactive: 0.024 | inactive: -0.079 | inactive: 0.049 | inactive: 0.042 | inactive: 0.043 | inactive: -0.015 | inactive: -0.071 | inactive: 0.013
DHX15 (UniProt O43143) | inactive: -0.025 | inactive: 0.04 | inactive: 0 | inactive: -0.038 | inactive: -0.002 | inactive: -0.006 | inactive: -0.007 | inactive: -0.003 | inactive: -0.007 | inactive: 0.011 | inactive: 0.003 | inactive: -0.011 | inactive: 0.025 | inactive: -0.027 | inactive: -0.016 | inactive: 0.001 | inactive: -0.005 | inactive: -0.014 | inactive: -0.007 | inactive: 0.014
